Data: PubChem BioAssay
The other results are listed elsewhere or left out. These are further read-outs of the screen, such as a control signal, another cell line or another target. No call is given for them. The list favours compounds with an active or inconclusive main result.

Assay: inhibitors of TNFa-induced NFkB p65 translocation, primary screen, imaging, HUVEC, MLSMR starter and 10KST1 sets (AID 438);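 note: compound added about 3h40 before a 20 min TNFalpha stimulation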
Conditions: HUVEC TNFa-induced p65 nuclear translocation, measured here: nuclei count (cytotoxicity indicator), at 2.08 µM

SMILES | cell count
COc1cccc(N2CCN(c3ncnc4c3[nH]c3ccccc34)CC2C)c1 (centres undefined) | 472
O=C(CN(Cc1ccco1)C(=O)CNS(=O)(=O)c1ccc(Cl)cc1)NCc1ccc(F)cc1 | 543
COc1ccc(CNC(=O)COC(=O)c2n[nH]c3ccccc23)cc1OC | 604
CC(C)CCNC(=O)NC(=O)CSc1nnc(COc2ccccc2Cl)o1 | 606
O=C(O)c1ccc(COCC(F)(F)C(F)F)o1 | 344
COC(=O)c1ccc(N2C(=O)CC(N3CCN(C(=O)c4ccco4)CC3)C2=O)cc1 (centres undefined) | 495
CCOC(=O)c1cc2c(=O)n3cccc(C)c3nc2n(CCc2ccccc2)c1=N | 462
COc1ccc(OCC(=O)OCCN(C)C)cc1 | 413
Cc1cccc(N2CN=c3s/c(=C\c4ccncc4)c(=O)n3C2)c1 | 421
COc1cc(C2C(C#N)=C(N)Oc3cc(N)ccc32)cc(OC)c1OC (centres undefined) | 379
Clc1ccc(-c2nnc3sc(-c4ccc(Br)o4)nn23)cc1 | 409
O=C1[C@@H]2C(c3ccccc3Cl)=NO[C@@H]2C(=O)N1Cc1ccccc1 | 385
CCC(NC(=O)Nc1nnc(C(F)(F)F)s1)(C(F)(F)F)C(F)(F)F | 690
Cc1cc(C(C)(C)C)c(O)c(C)c1CC1=NCCN1 | 381

Some of the entries so far, as tab-separated lines.
SMILES	cell count
Cc1cccc(N2CN=c3s/c(=C\c4ccncc4)c(=O)n3C2)c1	421
CCC(NC(=O)Nc1nnc(C(F)(F)F)s1)(C(F)(F)F)C(F)(F)F	690
